US20250275936A1, “METHOD FOR TREATING CANCERS AND NEUROLOGICAL DISEASES USING QUERCETIN-CONTAINING COMPOSITIONS” (Quercis Pharma AG, priority 2022, published 2025)
At least one compound was matched to its structure with a doubt left.

Tests used:
[1] = test system: cultured ALS microglia; assay: β-Gal activity (senescence marker) in cultured ALS microglia; assay type: cell-based; conditions: 12 hours IsoQ treatment, FIG. 3-5
[2] = test system: SOD1G93A rats; assay: Treatment of SOD1G93A rats (rat model of ALS) with IsoQ: spinal cord pathology and paralysis symptoms; assay type: in vivo
[3] = test system: SOD1G93A rats; assay: Muscle mitochondria in myofibers from extensor digitorum longus (EDL) muscle of SOD1G93A rats; assay type: in vivo, rat
[4] = pre-symptomatic SOD1G93A rats, EDL muscle, FIG. 13

O=c1c(O[C@@H]2O[C@H](CO)[C@@H](O)[C@H](O)[C@H]2O)c(-c2ccc(O)c(O)c2)oc2cc(O)cc(O)c12 [IsoQ, quercetin-3-O-glucoside]
senescence markers (β-Gal activity) in cultured ALS microglia [1]: downregulated senescence markers
senescent microglia number in the spinal cord (Iba1 / p16 staining) ([2]; SOD1G93A rats, FIG. 2): potently downregulated
spinal motor neuron pathology ([2]; SOD1G93A rats, FIG. 6): improved
p75NTR expression in damaged motor neurons ([2]; SOD1G93A rats, FIG. 7): prevented
ubiquitin expression in damaged motor neurons ([2]; SOD1G93A rats, FIG. 7): prevented
TDP-43 aggregates in motor neurons ([2]; SOD1G93A rats, FIG. 8): prevented
astrocytosis in the ventral horn (GFAP) ([2]; SOD1G93A rats, spinal cord ventral horn, FIG. 9): decreased
microgliosis in the ventral horn (Iba1) ([2]; SOD1G93A rats, spinal cord ventral horn, FIG. 10): decreased
SOD1 misfolding ([2]; SOD1G93A rats, spinal motor neurons, FIG. 6): improved
development of symptoms (paralysis) ([2]; SOD1G93A rats, three-month window, 30 mg/kg IsoQ (95%)-vit C (5%)-niacin/vitamin B3 (1%) in water daily, FIG. 11): prevented development of symptoms
number of healthy motor neurons ([2]; presymptomatic SOD1G93A rats, compared to asymptomatic controls): preserved the number of healthy motor neurons
extracellular PDI upregulation in the spinal cord ([2]; treatment prior to disease onset): prevented
development of neuronal and glial molecular markers that precede paralysis onset ([2]; treatment prior to symptom): delayed
mitochondria status in skeletal muscle ([3]; SOD1G93A rats): ameliorated
long mitochondria domains characteristic of healthy oxidative myofibers [3, 4]: increased
mitochondria number, integrity and size in myofibers [3, 4]: preserved
